In PubChem BioAssay AID248 (DTP/NCI, 2004):
The list does not hold the whole screen: it gathers tests that were run many times, whatever their T/C, doses with no T/C, and many T/C values between a quarter and a half above the control. Further doses and runs are listed elsewhere. T/C gives the treated animals as a percentage of the vehicle group. Some doses have a count of surviving animals in place of a T/C: the source files T/C as zero there, which appears to mark a toxic dose or a test without result, not a measured value. Some doses without a T/C left all or most animals alive at the check, yet need not have been tolerated: the source hardly ever lists a survival T/C far under the control, and the zero likely stands for such cases as well. Survivors were counted at the toxicity check, usually on the fifth day, unless a day is given; later deaths do not show. Schedules are NCI's codes, taken here to give the interval after Q, in days (D) or hours (H), and the number of doses after X. For survival time, this PubChem deposit counts one and a half times the control or more as active, and values a quarter to a half above the control carry no call in these data; other NCI protocols may use other cut-offs. Some T/C values are followed by the survivors on the day toxicity was checked, most often the fifth; without a count, all were alive then. Some entries hold several experiments; the values are given in rising order. Additions like (4×) say how often a value occurs here. Some schedules carry Z or #; the key to these is not given.

System: L1210 leukemia ip in BDF1 mice, survival T/C
Experiment: NCI In Vivo Anticancer Drug Screen. Data for tumor model L1210 Leukemia (intraperitoneal) in B6D2F1 (BDF1) mice
Details: T/C endpoint: mean survival time, higher T/C = longer survival
[1] = dose: 20.0 mg/kg/injection, schedule: Q01DX015 (ip), vehicle: clinical formulation
[2] = dose: 44.0 mg/kg/injection, schedule: Q01DX015 (ip), vehicle: clinical formulation
[3] = dose: 100.0 mg/kg/injection, schedule: Q01DX015 (ip), vehicle: water

Q: `Nc1nc2n[nH]nc2c(=O)[nH]1` was tested. Which T/C (dose: 6.25 mg/kg/injection, schedule: Q#A X Z (ip), vehicle: water) did it give?
A: The T/C was 130 % of control.

Q: And the T/C (dose: 7.5 mg/kg/injection, schedule: Q01DX Z (ip), vehicle: carboxymethylcellulose (CMC))?
A: The T/C was 128 % of control.

Q: And the T/C (dose: 11.18 mg/kg/injection, schedule: Q01DX Z (ip), vehicle: carboxymethylcellulose (CMC))?
A: The T/C was 139 [9 of 10 alive] and 142 % of control.

Q: And the T/C (dose: 12.5 mg/kg/injection, schedule: Q01DX009 (ip), vehicle: carboxymethylcellulose (CMC))?
A: Its T/C is 138 % of control.

Q: And the T/C (dose: 12.5 mg/kg/injection, schedule: Q01DX009 (ip), vehicle: saline)?
A: Its T/C is 145 % of control.

Q: What about the T/C (dose: 12.5 mg/kg/injection, schedule: Q01DX010 (ip), vehicle: alkali diluted with saline) of the same compound?
A: Its T/C is 124, 125, 128, 129, 141, 143 % of control.

Q: What about the T/C (dose: 12.5 mg/kg/injection, schedule: Q01DX Z (ip), vehicle: water) of the same compound?
A: The T/C was 133 % of control.

Q: And the T/C (dose: 12.5 mg/kg/injection, schedule: Q01DX Z (sc), vehicle: water)?
A: The T/C was 130 % of control.

Q: What about the T/C (dose: 15.0 mg/kg/injection, schedule: Q01DX Z (ip), vehicle: carboxymethylcellulose (CMC)) of the same compound?
A: The T/C was 146 % of control.

Q: What about the T/C [1] of the same compound?
A: Its T/C is 139 % of control.

Q: What about the survivor count [1] of the same compound?
A: The survivor count was 0 of 6.

Q: And the T/C (dose: 20.0 mg/kg/injection, schedule: Q01DX Z (ip), vehicle: other)?
A: The T/C was 128 % of control.

Q: What about the T/C (dose: 25.0 mg/kg/injection, schedule: Q01DX005 (ip), vehicle: saline with Tween-80) of the same compound?
A: The T/C was 121, 123, 125, 126 (2×), 127, 130, 131, 132, 133, 134, 136, 137 (2×), 138, 142 (2×), 147, 148, 150, 151 % of control.

Q: And the T/C (dose: 25.0 mg/kg/injection, schedule: Q01DX005 (ip), vehicle: saline)?
A: The T/C was 120, 122, 123 (2×), 125, 126, 128 (6×), 129 (2×), 130 (2×), 131, 132 (2×), 134 (3×), 135 (2×), 137, 138 (2×), 138 [5 of 6 alive], 140 (6×), 141 (4×), 144, 145 (2×), 147, 148, 151, 166, 170 % of control.

Q: What about the T/C (dose: 25.0 mg/kg/injection, schedule: Q01DX009 (ip), vehicle: carboxymethylcellulose (CMC)) of the same compound?
A: The T/C was 147 % of control.

Q: What about the T/C (dose: 25.0 mg/kg/injection, schedule: Q01DX009 (ip), vehicle: other, evaluated on day 30) of the same compound?
A: Its T/C is 130 % of control.

Q: And the T/C (dose: 25.0 mg/kg/injection, schedule: Q01DX009 (ip), vehicle: other, evaluated on day 40)?
A: Its T/C is 138 and 145 % of control.

Q: And the T/C (dose: 25.0 mg/kg/injection, schedule: Q01DX009 (ip), vehicle: saline)?
A: Its T/C is 148 % of control [5 of 6 alive].

Q: And the T/C (dose: 25.0 mg/kg/injection, schedule: Q01DX010 (ip), vehicle: alkali diluted with saline)?
A: Its T/C is 138, 141, 150, 153 % of control.

Q: What about the T/C (dose: 25.0 mg/kg/injection, schedule: Q01DX Z (im), vehicle: water) of the same compound?
A: Its T/C is 128 % of control.

Q: And the T/C (dose: 25.0 mg/kg/injection, schedule: Q01DX Z (ip), vehicle: other)?
A: Its T/C is 125 and 137 % of control.

Q: And the T/C (dose: 25.0 mg/kg/injection, schedule: Q01DX Z (sc), vehicle: water)?
A: Its T/C is 126 % of control.

Q: And the T/C (dose: 37.0 mg/kg/injection, schedule: Q03DX Z (ip), vehicle: water)?
A: Its T/C is 127 % of control.

Q: And the T/C (dose: 37.5 mg/kg/injection, schedule: Q02DX005 (ip), vehicle: carboxymethylcellulose (CMC))?
A: Its T/C is 144 % of control.

Q: And the T/C (dose: 39.0 mg/kg/injection, schedule: Q01DX015 (ip), vehicle: water)?
A: Its T/C is 146 % of control.

Q: What about the T/C [2] of the same compound?
A: The T/C was 139 % of control.

Q: And the survivor count [2]?
A: The survivor count was 0 of 6.

Q: What about the T/C (dose: 50.0 mg/kg/injection, schedule: Q01DX005 (ip), vehicle: saline with Tween-80) of the same compound?
A: Its T/C is 122, 123 (2×), 131 (2×), 131 [5 of 6 alive], 132, 133 (2×), 135, 138, 140, 144, 148 (2×), 149 (2×), 151, 155, 158, 159 % of control.

Q: And the T/C (dose: 50.0 mg/kg/injection, schedule: Q01DX005 (ip), vehicle: saline)?
A: Its T/C is 109, 122, 128 [5 of 6 alive], 130, 133 (2×), 134, 135 (3×), 136 (3×), 137 (2×), 138 (4×), 139 (2×), 140 (2×), 141 (2×), 142 (3×), 143 (4×), 145 (2×), 146 (3×), 147 (3×), 150, 153 (3×), 155, 161 % of control.

Q: What about the T/C (dose: 50.0 mg/kg/injection, schedule: Q01DX006 (iv), vehicle: water) of the same compound?
A: The T/C was 127 % of control.

Q: And the T/C (dose: 50.0 mg/kg/injection, schedule: Q01DX009 (ip), vehicle: other, evaluated on day 30)?
A: Its T/C is 142 % of control.

Q: And the T/C (dose: 50.0 mg/kg/injection, schedule: Q01DX009 (ip), vehicle: other, evaluated on day 40)?
A: The T/C was 148 % of control.

Q: And the T/C (dose: 50.0 mg/kg/injection, schedule: Q01DX009 (ip), vehicle: saline)?
A: Its T/C is 148 % of control.

Q: What about the T/C (dose: 50.0 mg/kg/injection, schedule: Q01DX009 (ip), vehicle: water) of the same compound?
A: Its T/C is 141 and 148 % of control.

Q: And the T/C (dose: 50.0 mg/kg/injection, schedule: Q01DX009 (sc), vehicle: carboxymethylcellulose (CMC))?
A: Its T/C is 125 % of control.

Q: And the T/C (dose: 50.0 mg/kg/injection, schedule: Q01DX010 (ip), vehicle: alkali diluted with saline)?
A: The T/C was 139, 150, 152, 155 % of control.

Q: And the T/C (dose: 50.0 mg/kg/injection, schedule: Q01DX Z (ip), vehicle: other)?
A: The T/C was 116, 144, 148, 154 % of control.

Q: And the T/C (dose: 62.0 mg/kg/injection, schedule: Q01DX001 (ip), vehicle: carboxymethylcellulose (CMC))?
A: Its T/C is 131 % of control.

Q: And the T/C (dose: 62.0 mg/kg/injection, schedule: Q06DX003 (ip), vehicle: carboxymethylcellulose (CMC))?
A: The T/C was 138 % of control.

Q: What about the T/C (dose: 62.0 mg/kg/injection, schedule: Q08DX003 (ip), vehicle: carboxymethylcellulose (CMC)) of the same compound?
A: Its T/C is 128 % of control.

Q: And the T/C (dose: 62.0 mg/kg/injection, schedule: Q10DX003 (ip), vehicle: carboxymethylcellulose (CMC))?
A: The T/C was 126 % of control.

Q: And the T/C (dose: 62.0 mg/kg/injection, schedule: Q## X003 (ip), vehicle: carboxymethylcellulose (CMC))?
A: Its T/C is 148 % of control.

Q: What about the T/C (dose: 62.5 mg/kg/injection, schedule: Q## X003 (ip), vehicle: carboxymethylcellulose (CMC)) of the same compound?
A: The T/C was 148 % of control.

Q: What about the T/C (dose: 75.0 mg/kg/injection, schedule: Q01DX005 (ip), vehicle: other) of the same compound?
A: Its T/C is 134 % of control.

Q: And the T/C (dose: 75.0 mg/kg/injection, schedule: Q01DX009 (ip), vehicle: other)?
A: The T/C was 142 % of control.

Q: And the T/C (dose: 75.0 mg/kg/injection, schedule: Q01DX009 (sc), vehicle: carboxymethylcellulose (CMC))?
A: Its T/C is 144 % of control.

Q: And the T/C (dose: 75.0 mg/kg/injection, schedule: Q01DX Z (ip), vehicle: other)?
A: The T/C was 135 % of control.

Q: What about the T/C (dose: 75.0 mg/kg/injection, schedule: Q03DX Z (ip), vehicle: water) of the same compound?
A: The T/C was 133 % of control.

Q: What about the T/C (dose: 75.0 mg/kg/injection, schedule: Q#A X Z (ip), vehicle: carboxymethylcellulose (CMC)) of the same compound?
A: The T/C was 140 % of control.

Q: And the T/C (dose: 89.4 mg/kg/injection, schedule: Q01DX Z (ip), vehicle: carboxymethylcellulose (CMC))?
A: Its T/C is 143 % of control.

Q: And the T/C (dose: 100.0 mg/kg/injection, schedule: Q01DX005 (ip), vehicle: saline with Tween-80)?
A: The T/C was 100, 125, 127, 134 (2×), 135, 136, 138, 139, 144 (3×), 146 (2×), 148, 152, 157, 161 (2×), 163, 175 % of control.

Q: What about the T/C (dose: 100.0 mg/kg/injection, schedule: Q01DX005 (ip), vehicle: saline) of the same compound?
A: The T/C was 119, 130 (2×), 133, 137 (4×), 138 (2×), 139, 140 (3×), 140 [5 of 6 alive], 142, 144, 145, 147 [4 of 6 alive], 147 [6 of 7 alive], 148 (2×), 149, 150 (3×), 151 (3×), 152 (2×), 152 [5 of 6 alive], 153, 155 (2×), 158 (3×), 160, 162, 162 [5 of 6 alive], 162 [6 of 7 alive], 164, 173, 175, 183 % of control.

Q: And the T/C (dose: 100.0 mg/kg/injection, schedule: Q01DX006 (iv), vehicle: water)?
A: Its T/C is 128 % of control [5 of 6 alive].

Q: What about the T/C (dose: 100.0 mg/kg/injection, schedule: Q01DX009 (ip), vehicle: saline with Tween-80) of the same compound?
A: The T/C was 125 % of control [5 of 6 alive].

Q: What about the T/C (dose: 100.0 mg/kg/injection, schedule: Q01DX009 (ip), vehicle: saline) of the same compound?
A: Its T/C is 141 % of control.

Q: What about the T/C (dose: 100.0 mg/kg/injection, schedule: Q01DX009 (ip), vehicle: water) of the same compound?
A: The T/C was 127 % of control [4 of 6 alive].

Q: And the T/C (dose: 100.0 mg/kg/injection, schedule: Q01DX010 (ip), vehicle: alkali diluted with saline)?
A: Its T/C is 154, 155 (2×), 161 % of control.

Q: And the survivor count (dose: 100.0 mg/kg/injection, schedule: Q01DX015 (ip), vehicle: clinical formulation)?
A: Its survivor count is 0 of 6.

Q: What about the T/C [3] of the same compound?
A: The T/C was 140 % of control [4 of 6 alive].

Q: And the survivor count [3]?
A: The survivor count was 4 of 6.
